Values quoted from earlier work in patent US20100172845A1, “COMPOSITIONS AND METHODS FOR TREATING MYCOBACTERIAL INFECTIONS” (BOARD OF REGENTS OF THE UNIVERSITY OF TEXAS SYSTEM, priority 2007, published 2010).
At least one structure is not confirmed: it was looked up by name or label, or the drawing left a doubt.

Conditions: cited from earlier work

SMILES	CMC, in words	critical micelle concentration (CMC)
CCCCCCCCCCCCO[C@@H]1O[C@H](CO)[C@@H](O[C@H]2O[C@H](CO)[C@@H](O)[C@H](O)[C@H]2O)[C@H](O)[C@H]1O [DDM, n-dodecyl-β-D-maltoside]	high CMC valves	–
CCCCCCCCO[C@@H]1O[C@H](CO)[C@@H](O)[C@H](O)[C@H]1O [OG, n-octyl-β-D-glucoside]	high CMC valves	10^−2 M
